PubChem BioAssay AID248 (DTP/NCI, 2004)
The list is a part of this screen's results and no random one: it is rich in T/C values a quarter to a half above the control, in often repeated tests (any T/C) and in doses without a T/C. Other doses and runs of a compound stand elsewhere. T/C gives the treated animals as a percentage of the vehicle group. Some doses have a count of surviving animals in place of a T/C: the source holds a T/C of zero for them, seemingly a mark for toxic or unscored doses. Some survivor counts are full or nearly so, which does not show that the dose was tolerated: the source hardly ever lists a survival T/C far under the control, and the zero likely stands for such cases as well. Counts of survivors are from the toxicity check (mostly the fifth day) where no day follows; animals may have died later. Schedules are NCI's codes, taken here to give the interval after Q, in days (D) or hours (H), and the number of doses after X. Some schedule codes hold Z or #, which are not explained here. For survival time, this PubChem deposit counts one and a half times the control or more as active, and values a quarter to a half above the control carry no call in these data; other NCI protocols may use other cut-offs. Some entries were tested several times; the results are listed from low to high. Some T/C values carry the count of animals alive at the toxicity check (mostly the fifth day); where none is given, no animal had died by that day.

Test system: L1210 leukemia ip in BDF1 mice, survival T/C
Assay: NCI In Vivo Anticancer Drug Screen. Data for tumor model L1210 Leukemia (intraperitoneal) in B6D2F1 (BDF1) mice
Details: T/C endpoint: mean survival time, higher T/C = longer survival
[1] = dose: 80.0 mg/kg/injection, schedule: Q01DX Z (ip), vehicle: saline
[2] = dose: 270.0 mg/kg/injection, schedule: Q01DX Z (ip), vehicle: saline

Question: What does the source list for `Nc1ccc(OC(=O)Oc2ccc(N)cc2)cc1`?
Answer: T/C (dose: 35.0 mg/kg/injection, schedule: Q01DX Z (ip), vehicle: other): 135 % of control; survivor count (dose: 50.0 mg/kg/injection, schedule: Q01DX015 (ip), vehicle: clinical formulation): 3 of 6; T/C (dose: 53.0 mg/kg/injection, schedule: Q01DX Z (ip), vehicle: other): 127 and 135 % of control; T/C (dose: 60.0 mg/kg/injection, schedule: Q#A X Z (ip), vehicle: saline): 128 % of control; T/C (dose: 80.0 mg/kg/injection, schedule: Q01DX013 (ip), vehicle: saline): 139 % of control; T/C (dose: 80.0 mg/kg/injection, schedule: Q01DX Z (ip), vehicle: carboxymethylcellulose (CMC)): 131 % of control; T/C [1]: 127 % of control; survivor count [1]: 6 of 6; T/C (dose: 90.0 mg/kg/injection, schedule: Q#A X Z (ip), vehicle: saline): 143 % of control; T/C (dose: 100.0 mg/kg/injection, schedule: Q01DX015 (ip), vehicle: other): 128 % of control; T/C (dose: 100.0 mg/kg/injection, schedule: Q01DX Z (ip), vehicle: saline): 142 % of control; T/C (dose: 100.0 mg/kg/injection, schedule: Q01DX Z (oral), vehicle: saline): 125 % of control; survivor count (dose: 100.0 mg/kg/injection, schedule: Q## X024 (ip), vehicle: saline): 9 of 10; T/C (dose: 100.0 mg/kg/injection, schedule: Q#A X Z (oral), vehicle: saline): 130 % of control; T/C (dose: 120.0 mg/kg/injection, schedule: Q01DX014 (sc), vehicle: saline): 136 % of control; T/C (dose: 120.0 mg/kg/injection, schedule: Q01DX Z (ip), vehicle: other): 137 % of control; T/C (dose: 150.0 mg/kg/injection, schedule: Q01DX017 (ip), vehicle: other): 136 % of control; T/C (dose: 178.0 mg/kg/injection, schedule: Q01DX009 (ip), vehicle: saline): 142 % of control; T/C (dose: 180.0 mg/kg/injection, schedule: Q01DX014 (oral), vehicle: saline): 128 % of control; T/C (dose: 180.0 mg/kg/injection, schedule: Q01DX014 (sc), vehicle: saline): 132 % of control; T/C (dose: 180.0 mg/kg/injection, schedule: Q01DX Z (ip), vehicle: other): 133 % of control; T/C (dose: 180.0 mg/kg/injection, schedule: Q01DX Z (ip), vehicle: saline): 131 and 132 % of control; T/C (dose: 200.0 mg/kg/injection, schedule: Q01DX009 (ip), vehicle: saline): 125 % of control; T/C (dose: 200.0 mg/kg/injection, schedule: Q01DX009 (oral), vehicle: saline): 129 % of control [8 of 10 alive]; T/C (dose: 200.0 mg/kg/injection, schedule: Q01DX Z (im), vehicle: saline): 146 % of control; T/C (dose: 200.0 mg/kg/injection, schedule: Q01DX Z (sc), vehicle: saline): 134 % of control; T/C (dose: 212.0 mg/kg/injection, schedule: Q01DX014 (oral), vehicle: saline): 126 % of control; T/C (dose: 212.0 mg/kg/injection, schedule: Q01DX016 (oral), vehicle: saline): 145 % of control; survivor count (dose: 212.0 mg/kg/injection, schedule: Q01DX Z (oral), vehicle: saline): 3 of 6; T/C (dose: 267.0 mg/kg/injection, schedule: Q01DX009 (ip), vehicle: saline): 143 % of control; T/C (dose: 267.0 mg/kg/injection, schedule: Q01DX009 (oral), vehicle: saline): 129 % of control; T/C (dose: 270.0 mg/kg/injection, schedule: Q01DX Z (ip), vehicle: other): 135 % of control; T/C [2]: 127 % of control; survivor count [2]: 3 of 6; T/C (dose: 270.0 mg/kg/injection, schedule: Q01DX Z (sc), vehicle: saline): 134 % of control; T/C (dose: 299.0 mg/kg/injection, schedule: Q01DX Z (ip), vehicle: carboxymethylcellulose (CMC)): 128 % of control [5 of 6 alive]; T/C (dose: 300.0 mg/kg/injection, schedule: Q01DX009 (ip), vehicle: other): 141 % of control; T/C (dose: 300.0 mg/kg/injection, schedule: Q01DX017 (ip), vehicle: other): 142 % of control; T/C (dose: 300.0 mg/kg/injection, schedule: Q01DX Z (ip), vehicle: carboxymethylcellulose (CMC)): 131 % of control; T/C (dose: 300.0 mg/kg/injection, schedule: Q#A X018 (ip), vehicle: other): 131 % of control; survivor count (dose: 320.0 mg/kg/injection, schedule: Q01DX Z (iv), vehicle: saline): 0 of 6; T/C (dose: 320.0 mg/kg/injection, schedule: Q01DX Z (oral), vehicle: saline): 141 % of control [4 of 6 alive]; T/C (dose: 400.0 mg/kg/injection, schedule: Q01DX005 (ip), vehicle: saline): 130 % of control [8 of 10 alive]; T/C (dose: 400.0 mg/kg/injection, schedule: Q01DX009 (ip), vehicle: saline, evaluated on day 30): 129 % of control [9 of 10 alive]; T/C (dose: 400.0 mg/kg/injection, schedule: Q01DX009 (ip), vehicle: saline, run until all animals had died): 135 % of control [9 of 10 alive]; survivor count (dose: 400.0 mg/kg/injection, schedule: Q01DX015 (ip), vehicle: clinical formulation): 5 of 6; survivor count (dose: 400.0 mg/kg/injection, schedule: Q01DX015 (ip), vehicle: other): 2 of 6; T/C (dose: 400.0 mg/kg/injection, schedule: Q01DX Z (im), vehicle: saline): 138 % of control; survivor count (dose: 400.0 mg/kg/injection, schedule: Q01DX Z (ip), vehicle: saline): 3 of 6; survivor count (dose: 400.0 mg/kg/injection, schedule: Q01DX Z (oral), vehicle: saline): 6 of 6; T/C (dose: 400.0 mg/kg/injection, schedule: Q01DX Z (sc), vehicle: saline): 146 % of control; T/C (dose: 400.0 mg/kg/injection, schedule: Q## X024 (ip), vehicle: saline): 126 % of control; T/C (dose: 400.0 mg/kg/injection, schedule: Q#A X Z (oral), vehicle: saline): 136 % of control [4 of 6 alive]; survivor count (dose: 405.0 mg/kg/injection, schedule: Q01DX Z (ip), vehicle: saline): 2 of 6; T/C (dose: 480.0 mg/kg/injection, schedule: Q01DX Z (oral), vehicle: saline): 148 % of control; T/C (dose: 500.0 mg/kg/injection, schedule: Q01DX001 (oral), vehicle: saline): 130 % of control [5 of 6 alive]; survivor count (dose: 600.0 mg/kg/injection, schedule: Q01DX001 (ip), vehicle: other): 5 of 8; survivor count (dose: 600.0 mg/kg/injection, schedule: Q01DX009 (ip), vehicle: saline): 4 of 10; T/C (dose: 600.0 mg/kg/injection, schedule: Q01DX009 (oral), vehicle: saline): 131 % of control; survivor count (dose: 606.0 mg/kg/injection, schedule: Q01DX Z (sc), vehicle: saline): 5 of 6; survivor count (dose: 640.0 mg/kg/injection, schedule: Q01DX Z (iv), vehicle: saline): 0 of 6; survivor count (dose: 800.0 mg/kg/injection, schedule: Q01DX001 (ip), vehicle: saline): 3 of 10; survivor count (dose: 800.0 mg/kg/injection, schedule: Q01DX005 (oral), vehicle: saline): 2 of 10; survivor count (dose: 800.0 mg/kg/injection, schedule: Q01DX Z (im), vehicle: saline): 1 of 6; survivor count (dose: 800.0 mg/kg/injection, schedule: Q01DX Z (oral), vehicle: saline): 3 of 6; survivor count (dose: 800.0 mg/kg/injection, schedule: Q01DX Z (sc), vehicle: saline): 1 of 6; survivor count (dose: 800.0 mg/kg/injection, schedule: Q## X003 (ip), vehicle: saline): 4 of 10; T/C (dose: 800.0 mg/kg/injection, schedule: Q## X008 (ip), vehicle: saline): 137 % of control; survivor count (dose: 800.0 mg/kg/injection, schedule: Q## X024 (oral), vehicle: saline): 4 of 9; survivor count (dose: 800.0 mg/kg/injection, schedule: Q#A X Z (oral), vehicle: saline): 3 of 6; survivor count (dose: 810.0 mg/kg/injection, schedule: Q03DX Z (ip), vehicle: saline): 1 of 6; survivor count (dose: 840.0 mg/kg/injection, schedule: Q07DX Z (ip), vehicle: saline): 1 of 6; T/C (dose: 900.0 mg/kg/injection, schedule: Q01DX009 (oral), vehicle: saline): 142 % of control; T/C (dose: 900.0 mg/kg/injection, schedule: Q## X024 (oral), vehicle: saline): 147 % of control; survivor count (dose: 1000.0 mg/kg/injection, schedule: Q01DX001 (oral), vehicle: saline): 3 of 6; survivor count (dose: 1080.0 mg/kg/injection, schedule: Q01DX Z (oral), vehicle: saline): 1 of 6; survivor count (dose: 1200.0 mg/kg/injection, schedule: Q01DX001 (ip), vehicle: other): 0 of 8; survivor count (dose: 1260.0 mg/kg/injection, schedule: Q07DX Z (ip), vehicle: saline): 0 of 6; survivor count (dose: 1600.0 mg/kg/injection, schedule: Q01DX008 (oral), vehicle: saline): 2 of 10; survivor count (dose: 1600.0 mg/kg/injection, schedule: Q01DX Z (im), vehicle: saline): 1 of 6; survivor count (dose: 1600.0 mg/kg/injection, schedule: Q01DX Z (oral), vehicle: saline): 0 of 6; survivor count (dose: 1600.0 mg/kg/injection, schedule: Q01DX Z (sc), vehicle: saline): 0 of 6; survivor count (dose: 1600.0 mg/kg/injection, schedule: Q## X024 (oral), vehicle: saline): 3 of 8; survivor count (dose: 1890.0 mg/kg/injection, schedule: Q07DX Z (ip), vehicle: saline): 0 of 6; survivor count (dose: 2000.0 mg/kg/injection, schedule: Q01DX001 (oral), vehicle: saline): 2 of 6; survivor count (dose: 2000.0 mg/kg/injection, schedule: Q03DX006 (oral), vehicle: saline): 3 of 6; survivor count (dose: 2000.0 mg/kg/injection, schedule: Q07DX003 (oral), vehicle: saline): 1 of 6
